Data as given in PubChem BioAssay AID504444 (National Center for Advancing Translational Sciences (NCATS), 2011).
Hit rate of the full screen: of about 360,000 compounds, about 7,500 (2.1%) were called active. The inconclusive results got no clear call from the source; some entries with a clear call stand among them for comparison. Calls come from the whole dose curve; as a rule, active = well fitted inhibition curve with a large enough effect; inconclusive = small, poorly fitted or top-dose-only effect, or effect the other way; inactive = flat fitted curve, though single readings scatter. Potencies of inconclusive entries are doubtful fits and often do not repeat.

experiment: Nrf2 qHTS screen for inhibitors; settings: A549 ARE-Fluc reporter, luciferase luminescence, 18-24 h; activity change, negative = inhibition: at 46 µM (top of the series); note: nearly all actives have a fitted effect of over 60% in size
How it was run: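 Reporter: ARE-Fluc in A549. Exposure: 18-24 h, 37 °C, 5% CO2, 5% FBS OPTI-MEM. Readouts: fluorescent cytotoxicity (CellTiter-Fluor), then luminescent Nrf2 signal after BugLite.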
% is set by controls: 0 for no effect and ±100 for the full control effect; potency is the fitted concentration of half-maximal effect.

| Structure (SMILES) | Potency | activity change, negative = inhibition |
| --- | --- | --- |
| COCCCNC(=O)/C(C#N)=C/c1cc(C)[nH]c1C | inconclusive: 23.1 µM [activator, single point] |  |
| CC1CCN(CC(=O)N2c3ccccc3CC2C)CC1 (stereo not given) | inconclusive: 29.1 µM [activator, single point] |  |
| C(#CC1CCCCC1)c1ccc2c(c1)COc1c3ccccc3nn1-2 | inconclusive: 0.651 µM [falling, full curve] |  |
| CC(C)c1ccc(CN2C(=O)NC3(CCCCCC3)C2=O)cc1 | inconclusive: 10.3 µM [falling, partial curve, poor fit] |  |
| Clc1cccc(-c2ccc(-c3nc4ccccn4c3NCc3ccccc3)cc2)c1 | inconclusive: 29.1 µM [falling, single point] |  |
| O=C(O)c1cccnc1Nc1cccc(C(F)(F)F)c1 |  | inactive: 5.53% |
| Cc1ccc(Cl)cc1NC(=O)COC(=O)CCN1C(=O)C2CC=CCC2C1=O (stereo not given) |  | inactive: -0.644% |
| O=C(c1cnn2c(C(F)(F)F)cc(-c3ccco3)nc12)N1CCc2ccccc2C1 | inconclusive: 32.6 µM [falling, single point] |  |
| COc1ccc(NC(C)=O)cc1S(=O)(=O)Nc1ccccc1C(=O)NCCc1ccccc1 | inconclusive: 0.731 µM [activator, full curve, poor fit] |  |
| O=C(N/N=C/C(Br)=C/c1ccccc1)c1cccs1 | inconclusive: 23.1 µM [activator, partial curve] |  |
| C/C(=N/Nc1nc(C)c(C)s1)c1cccc([N+](=O)[O-])c1 | inconclusive: 20.6 µM [activator, single point] |  |
| CC(C)(C)n1cnnc1Sc1ccc([N+](=O)[O-])cn1 | inconclusive: 18.4 µM [falling, partial curve, poor fit] |  |
| CNc1cc(C)nc(-n2nc(C)cc2C)n1 | inconclusive: 14.6 µM [activator, partial curve, poor fit] |  |
| Cc1cccc(-c2nnc(SCCC(=O)O)o2)c1 | active: 1.46 µM |  |
| Cc1ccc(C(C)(C)C)cc1S(=O)(=O)N1CC(=O)Nc2ccccc21 | active: 25.9 µM |  |
| Cc1nc2ccc(Cl)cc2nc(C)/c1=N\O | inconclusive: 18.4 µM [activator, single point] |  |
| COCC(C)NC(=O)c1ccccc1OC(C)=O (stereo not given) |  | inactive: -4.22% |
| N#Cc1c(NC(=O)C2CC(c3ccccc3O)=NO2)sc2c1CCC2 (stereo not given) | inconclusive: 20.6 µM [falling, single point] |  |
| Cc1oc(-c2cccc(Cl)c2)nc1CSCC(=O)O | inconclusive: 23.1 µM [falling, single point] |  |
| CCC(=O)Nc1ccc(C)cc1-c1nc2ccccc2n(Cc2ccccc2)c1=O | inconclusive: 16.4 µM [activator, partial curve, poor fit] |  |
| COCCOC(=O)c1[nH]c2c(c1C)C(=O)CC(c1cc(OC)c(OC)c(OC)c1)C2 (stereo not given) | inconclusive: 29.1 µM [falling, single point] |  |
| O=C(Nc1nc(-c2ccc(Cl)s2)cs1)c1ccco1 | inconclusive: 3.26 µM [activator, partial curve] |  |

| Structure (SMILES) | Potency | activity change, negative = inhibition |
| --- | --- | --- |
| COCC(=O)N(Cc1nc2ccccc2c(=O)[nH]1)Cc1cccs1 | inconclusive: 3.66 µM [falling, partial curve, poor fit] |  |
| COc1ccc(NC(=O)C2CCCN2S(=O)(=O)c2ccc3c(c2)CCCC(=O)N3)cc1Cl (stereo not given) | inconclusive: 32.6 µM [falling, single point] |  |
| Fc1cccc2sc(Nc3nc4ccccc4s3)nc12 | inconclusive: 29.1 µM [activator, single point] |  |
| CCOC(=O)c1cccc(NC(=O)CCc2nc(-c3ccc(C)cc3)no2)c1 | inconclusive: 29.1 µM [falling, single point] |  |
| COc1ccc(NC(=O)C(=S)NC2CCCCC2)cc1 | inconclusive: 9.2 µM [activator, partial curve] |  |
| CCOC(=O)c1c2c(n(-c3ccc(OC)cc3)c1C)C(=O)C(=O)c1ccccc1-2 | inconclusive: 29.1 µM [falling, single point] |  |
| Cc1ccnc(NC(=O)c2cccc(S(=O)(=O)N3CCOCC3)c2)c1 | inconclusive: 20.6 µM [activator, single point] |  |
| C/C=C(/C)C(=O)Nc1cccc(C2=NOC3(C2)C[C@H](C(N)=O)N(C(=O)Cc2ccc([N+](=O)[O-])cc2)C3)c1 (stereo not given in full) |  | inactive: 4.24% |
| CC(Sc1nncs1)C(=O)Nc1ccc2c(c1)OCCO2 (stereo not given) | inconclusive: 13 µM [activator, partial curve, poor fit] |  |
| Cc1ccc(-c2n[nH]c(=S)n2/N=C/c2c(C)nn(-c3ccccc3)c2C)cc1 | inconclusive: 29.1 µM [falling, partial curve, poor fit] |  |
| N#Cc1nc(Cc2ccccc2)oc1NCCc1ccccc1 | inconclusive: 23.1 µM [activator, single point] |  |
| C#CCOc1ccc(/C=C2/C(=O)NN(c3ccc(F)cc3)C2=O)cc1OC |  | inactive: 5.11% |
| O=C(NCc1cc(F)ccc1F)C1CCC(=O)N(C2CCCCCC2)C1 (stereo not given) | inconclusive: 8.2 µM [activator, partial curve] |  |
| Cc1oncc1C(=O)Nc1ccc(C(F)(F)F)cc1 | inconclusive: 2.06 µM [activator, single point] |  |
| NC(=O)c1ccc(NC(=O)CN2CCN(Cc3ccccc3)CC2)cc1 | inconclusive: 23.1 µM [falling, single point] |  |
| CCCOC(=O)c1cccc(NC(=O)c2cccnc2)c1 | inconclusive: 6.51 µM [falling, full curve, poor fit] |  |
| Cc1ccc(N2C(=O)C(CC(=O)Nc3ccccc3)N(CCC3=CCCCC3)C2=O)cc1 (stereo not given) | inconclusive: 29.1 µM [activator, single point] |  |
| COc1ccc(C2CC(c3ccccc3)=NN2C(=S)Nc2ccccc2)cc1 (stereo not given) | inconclusive: 0.103 µM [falling, full curve, poor fit] |  |
| CCn1c2ccccc2c2cc(NC(=O)CNCc3ccccc3OC)ccc21 | inconclusive: 20.6 µM [activator, partial curve] |  |
| CC(C)Cn1c(CN(Cc2ccccc2)Cc2ccccc2)nc2c1c(=O)n(C)c(=O)n2C | inconclusive: 23.1 µM [falling, partial curve, poor fit] |  |
| Cc1ccccc1NC1=C/C(=N\S(=O)(=O)c2cccs2)c2ccccc2C1=O | inconclusive: 29.1 µM [falling, single point] |  |
| Cc1ccc(NC(=S)NC2CCCC2)c(C)c1 | inconclusive: 25.9 µM [activator, partial curve, poor fit] |  |

Part of the list above in another layout.
Structure (SMILES)	Potency	activity change, negative = inhibition
CCOC(=O)c1cccc(NC(=O)CCc2nc(-c3ccc(C)cc3)no2)c1	inconclusive: 29.1 µM [falling, single point]	
COc1ccc(NC(=O)C(=S)NC2CCCCC2)cc1	inconclusive: 9.2 µM [activator, partial curve]	

(list continues)

| Structure (SMILES) | Potency | activity change, negative = inhibition |
| --- | --- | --- |
| CC(C)N=C(NC#N)SCc1ccccc1 | inconclusive: 23.1 µM [activator, partial curve, poor fit] |  |
| Cn1c2ccc(F)cc2c2nnc(SCCN3CCCCC3)nc21 | inconclusive: 4.11 µM [falling, full curve, poor fit] |  |
| COc1ccc(OC)c(CNn2c(-c3cccc(C)c3)nc3ccccc3c2=O)c1 | active: 18.4 µM |  |
| COc1ccccc1/C=C/C(=O)NCc1ccccn1 | inconclusive: 11.6 µM [activator, partial curve, poor fit] |  |
| COc1ccc(CNC(=O)COC(=O)c2cccn2C)cc1 | inconclusive: 18.4 µM [activator, single point] |  |
| COc1ccc(NC(=S)NC(NC(=O)c2cccc3ccccc23)C(Cl)(Cl)Cl)c([N+](=O)[O-])c1 (stereo not given) | active: 25.9 µM |  |
| COc1ccc(-n2nc(C(=O)NCC(=O)N3CCN(c4ccccn4)CC3)c3ccccc3c2=O)cc1 | inconclusive: 8.2 µM [activator, partial curve, poor fit] |  |
| CCOc1ccc(-c2csc(/C(C#N)=C\c3ccc(O)c([N+](=O)[O-])c3)n2)cc1 | inconclusive: 29.1 µM [falling, single point] |  |
| CCCCNS(=O)(=O)c1ccc(NC(=O)Cc2ccccc2[N+](=O)[O-])cc1 | inconclusive: 29.1 µM [falling, single point] |  |
| CCCSc1nc2ccccc2n1CC(=O)O | inconclusive: 14.6 µM [activator, partial curve, poor fit] |  |
| COc1ccccc1CNC(=O)c1cc(-c2ccccc2)n[nH]1 | inconclusive: 29.1 µM [activator, single point] |  |
| CC(Oc1ccc(Cl)cc1)C(=O)Nc1sccc1C(N)=O (stereo not given) | inconclusive: 29.1 µM [falling, single point] |  |
| CCOC(=O)Cn1cnc2c(cnn2-c2ccc(C)c(C)c2)c1=O | inconclusive: 9.2 µM [activator, partial curve] |  |
| Oc1ccc(-c2n[nH]c(C(F)(F)F)c2-c2ccccc2)c(O)c1 | inconclusive: 29.1 µM [falling, single point] |  |
| COc1ccc(OC)c(/C=C/C(=O)OCC(=O)Nc2cccc(Oc3ccccc3)c2)c1 |  | inactive: 1.74% |
| N#C/C(=N\Nc1cccc(Cl)c1)C(=O)c1ccccc1 | inconclusive: 13 µM [falling, partial curve, poor fit] |  |
| COc1ccc(C(=O)NC2(C(F)(F)F)NC(=O)N(CCCc3ccccc3)C2=O)cc1OC (stereo not given) | inconclusive: 16.4 µM [falling, single point] |  |
| Cc1[nH]c(SCC(=O)Nc2cc(S(C)(=O)=O)ccc2Cl)nc1Cc1ccccc1 | inconclusive: 29.1 µM [falling, single point] |  |
| CN(CCC#N)C(=O)COC(=O)c1nn(-c2ccccc2)c(=O)c2ccccc12 |  | inactive: -3.84% |
| O=C(Nc1cccc(S(=O)(=O)C(F)F)c1)c1ccc(S(=O)(=O)N2CCOCC2)cc1 |  | inactive: -37.2% |
| COc1ccc(NC(=O)c2nc(S(=O)(=O)Cc3ccc(C)cc3)ncc2Cl)cc1 | inconclusive: 29.1 µM [falling, single point] |  |

Full records, looked up by structure:
COc1ccc(OC)c(CNn2c(-c3cccc(C)c3)nc3ccccc3c2=O)c1 is listed with Potency: active: 18.4 µM
CCCCNS(=O)(=O)c1ccc(NC(=O)Cc2ccccc2[N+](=O)[O-])cc1 is listed with Potency: inconclusive: 29.1 µM [falling, single point]
